According to PubChem BioAssay AID1347426 (Functional Genomics Laboratory (NCATS/FGL), 2020):
Among all 31,000 sequences or so, about 1,400 (4.5%) were called active.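 Rule for the calls: active = median seed-adjusted z-score above 1 or below -1; inactive = the rest.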 Some of the results follow.

Test: Novel Modifiers of Survival Motor Neuron (SMN) Protein: Gene Identification via Genome-wide siRNA Screen;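 note: luminescence tracks full-length SMN protein made from the SMN2 reporter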
Details: HEK293T SMN2-luciferase reporter, siRNA knockdown, 72 h; actives lie on both sides
Procedure, shortened: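 Genome-wide siRNA screen (10418 genes, 3 siRNAs each, 1 pmol per well) by reverse transfection in HEK293T cells stably carrying an SMN2-luciferase reporter; luminescence after 72 hours, normalized to negative-control siRNA, log10-transformed, MAD-scored.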

Row | Sequence | median seed-adjusted z-score
1 | GCUUGAGCAUUGGUAUUCATT against LIPG | inactive: -0.00236
2 | CAGUAACUGUGGAAGAUCUTT against SLC5A8 | inactive: 0.441
3 | GGGAGUUGUGCAUAAAGAATT against MYO1C | inactive: 0.566
4 | CGACGGCACCUGCAAUUUUTT against IMPA2 | inactive: 0.0513
5 | GGCAUUCACUCAUACGGCATT against ATIC | inactive: -0.0267
6 | GGCAAGGGAUGAUCAUAUATT against ZNF420 | inactive: -0.5
7 | AGAAGAUCAUAGGCAGCAATT against KLK8 | inactive: 0.736
8 | CGAUUACAAGUUUAACGGUTT against ZFYVE9 | inactive: 0.373
9 | GGUUCGAAAUCGUGGAGCATT against KCNS2 | inactive: 0.0597
10 | GCUCUUUAAGGGUCACCCATT against MB | inactive: 0.504
11 | GUCCAUGACUUGCCCAAUUTT against SLC14A1 | inactive: -0.0585
12 | AGCUUCCUACUAAAACGAATT against AGAP2 | inactive: 0.0934
13 | GAUGAGUAUGCAAAAUUUATT against ATR | inactive: -0.217
14 | GAACCUCGAUGGGAUCAAATT against SFXN1 | inactive: -0.746
15 | GCAGUUUGGGAGUCCGGUATT against SLC16A13 | inactive: -0.0537
16 | GUUUUAUCCAGGACCAGUATT against GATAD1 | inactive: 0.328
17 | GAGAGAAAAGGGUCACAAATT against GPR61 | inactive: 0
18 | GGUAUGAAGUAAAAAGCGATT against FBN2 | inactive: 0.373
19 | GGUGAUUGCAUACUCGGAATT against OSGEP | inactive: 0.0178
20 | AGACCAUAAUAGUGGAAAATT against SDHC | inactive: 0.00895
21 | AGAGCAAUGUGACAAGUAUTT against CCRL2 | inactive: 0.575
22 | GGAUUGAAAACAAACUCUATT against RET | inactive: -0.931
23 | CAGUCUUUUUGAUUCCCAUTT against NAT8 | inactive: -0.228
24 | AGCCGGUUCUUACCUCUUATT against TST | inactive: 0
25 | GCAACACUUUCUGACCAUUTT against TRPM1 | inactive: -0.527
26 | CGUGCUAUCUGGAGUCCUATT against SERPINB3 | inactive: -0.373
27 | GUGUUUAACUCUAGUAUUUTT against HS3ST3B1 | inactive: 0.937

A few values from above.
Value for GGUUCGAAAUCGUGGAGCATT against KCNS2 under median seed-adjusted z-score: inactive: 0.0597
Value for GGGAGUUGUGCAUAAAGAATT against MYO1C under median seed-adjusted z-score: inactive: 0.566
Value for CGUGCUAUCUGGAGUCCUATT against SERPINB3 under median seed-adjusted z-score: inactive: -0.373
Value for AGAAGAUCAUAGGCAGCAATT against KLK8 under median seed-adjusted z-score: inactive: 0.736

Later entries:

Row | Sequence | median seed-adjusted z-score
28 | GCUGAGGUUUGGAGGCAAATT against CDK5R2 | inactive: -0.0965
29 | CAACUGCAGCAGAUUCUAATT against MNAT1 | inactive: -0.335
30 | GGCGAUUUAUGGAUGAAGATT against MLL4 | inactive: -0.259
31 | CAUUCUAUGGGAUACCCUATT against SYT4 | inactive: -0.354
32 | CAAAGAGAUUUGUACAGAUTT against ZNF140 | inactive: 0.587
33 | GGUUGAAUAUGACAUAGAUTT against SMS | inactive: 0.186
34 | GGAAGUACUGCGAACACGATT against LIMS2 | inactive: 0
35 | GAAGACCACUCGAAUCGAATT against HSP90B1 | inactive: 0
36 | GGAUGAUGAGCUCACGUAUTT against STAB1 | inactive: 0.264
37 | GAAUGAGGUUGACUUCUAUTT against CASQ2 | inactive: 0.4
38 | GUAUCUUCAUUGAGCUCAATT against EPHA2 | inactive: 0.0948
39 | GGCUGUCCUUAGUACCAGATT against CFTR | active: -1.23
40 | GAGCAACAGUCACCAGAUATT against MAT2A | active: -1.9
41 | GGAAGUAACACUCAACAAATT against PDZD2 | inactive: -0.00167
42 | CAUCAAAUCUAUGCAGUUUTT against KCNMA1 | inactive: 0
43 | GUGGGAAACAAGUAAUAUATT against ZNF502 | inactive: 0.348
44 | GGAAGAACCCUCUACCAAATT against COIL | inactive: 0
45 | GUUUCGUCCAUGCAUCAAATT against ABCC2 | inactive: -0.0464
46 | CCUGCUUACCUGAUCAAAATT against SLC25A34 | inactive: -0.256
47 | CGGUGCCUGCGAAACAUCATT against CRHR1 | inactive: -0.67
48 | CUCCAGAUAUAGACCUCAATT against TRIM22 | inactive: 0.363
49 | CAAUUACAAUGAGGAGAAATT against CHRND | inactive: -0.112
50 | GGGCUACCAUCAUUGAUCUTT against HDAC11 | inactive: 0.259
51 | UCAGAACCGUAGGAUGAAATT against HOXD9 | inactive: -0.123
52 | GAUUUUAUCUCAGUACAUUTT against UCK2 | active: -1.51
53 | GCAAAACAGCGGCAGAACATT against ATP8B2 | inactive: -0.268
54 | GCUACUGGGUGGGAGUAUATT against PIK3C2G | inactive: 0.0251
